Here are results for one molecule from paper PMC7090148 (2020).

Substitutions are numbered along the chain they refer to. These are yes or no findings as the source states them, for the method shown. Binding seen in cells or lysates may run through a third protein. Some binding calls cover weakened binding; strength is not graded here. Sequences can lack the tags named with a protein.

For assay [1], the target named is T1, Mouse OFD1 S437R (mouse) (UniProt Q80Z25).
T1 sequence: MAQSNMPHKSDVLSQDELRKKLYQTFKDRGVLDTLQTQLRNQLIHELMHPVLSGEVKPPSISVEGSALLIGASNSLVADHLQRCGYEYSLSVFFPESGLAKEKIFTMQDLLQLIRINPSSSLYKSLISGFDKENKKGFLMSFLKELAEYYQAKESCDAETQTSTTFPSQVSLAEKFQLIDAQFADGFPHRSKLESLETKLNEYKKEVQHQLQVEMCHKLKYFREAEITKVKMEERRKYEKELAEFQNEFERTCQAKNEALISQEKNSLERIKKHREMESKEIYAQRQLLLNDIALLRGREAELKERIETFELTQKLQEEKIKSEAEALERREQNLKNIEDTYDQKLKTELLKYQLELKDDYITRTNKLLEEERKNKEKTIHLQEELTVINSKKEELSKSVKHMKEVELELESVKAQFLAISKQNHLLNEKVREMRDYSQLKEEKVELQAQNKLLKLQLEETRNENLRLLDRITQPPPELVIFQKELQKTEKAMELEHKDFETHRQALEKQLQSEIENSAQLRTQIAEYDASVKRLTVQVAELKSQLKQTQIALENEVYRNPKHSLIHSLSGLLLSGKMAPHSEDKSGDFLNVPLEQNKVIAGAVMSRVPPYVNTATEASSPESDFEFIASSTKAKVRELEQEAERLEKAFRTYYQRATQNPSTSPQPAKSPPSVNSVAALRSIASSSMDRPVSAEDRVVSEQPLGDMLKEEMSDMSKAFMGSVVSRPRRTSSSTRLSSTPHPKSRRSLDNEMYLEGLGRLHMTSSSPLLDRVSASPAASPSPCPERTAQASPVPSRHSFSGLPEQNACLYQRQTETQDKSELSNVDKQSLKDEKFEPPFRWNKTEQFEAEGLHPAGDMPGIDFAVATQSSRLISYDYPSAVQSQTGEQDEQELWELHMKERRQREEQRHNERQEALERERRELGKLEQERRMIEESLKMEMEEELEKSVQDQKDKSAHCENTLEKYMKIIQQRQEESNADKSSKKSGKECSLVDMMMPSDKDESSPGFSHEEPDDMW
In words: co-IP; OFD1 mutants co-expressed with TRAPPC8 or TRAPPC12; IP efficiency as ratio of immunoprecipitated TRAPPC8/OFD1 or TRAPPC12/OFD1; cell line and IP antibody not stated for this panel.

In assay [2] the target is T2, Mouse OFD1, wild type (mouse) (UniProt Q80Z25).
T2 sequence: T1 sequence with R435S
Described as above.

B1: NTAP-tagged TRAPPC12 (protein, UniProt Q8K2L8 1-797)
chain: METAKDGEQSPSEASPSAQAGPENIPEPMSREEESQPLYHEETIDLGGDEFASEENEPTSEGSHNFGDKLNEHMMESVLISDSPNNSEGDVGDLGCLQDVGEPPRGATDHRLPSSTDKEVVDTLSNGSETDGDDTPRDISDMTPDSRASLKEDSTQEDVTSMPALENAATEEVGPKDSLAPREEQTSEVSSNQSSSKDEPLPVCTIFSQATATPSQPHLFLQDGFESQMVKSPSFSSTSETSAKTPPPMVQPSPSLSTFFGDTMSSNSLASDFFDSFTTSTFISVSNPNAGSPVPEKLSSLTAPVGEKSPDSTSPSYSTRMDRSESGVSRAPLDVPESPKPFSQIQAVFAGSDDPFATALSMSEMDRRNDAWLPSQATREVLMSVATQQYGTVFIDKENLTMPGLKFDNIQGDAVKDLMLRFLGEKAAAKRQVLNASSVEQSFVGLKQLISCRNWRAAVDLCGRLLTAHGQGYGKNGLPTSHTTDSLQLWFVRLALLVKLGLFQNAEMEFEPFGNLDQPDLYYEYYPHVYPGRRGSMVPFSMRILHAELQQYLGNPQESLDRLHRVKTVCSKILANLEQGLAEDGGLSSVTQESRQASVQLWRSRLGRVLYSMANCLLLMKDYVLAVDAYLTVIKYYPEQEPQLLSGIGRILLQIGDIKTAEKYFQDVEKVTQKLDGLQGKIMVLMNRAFLYLGQNNFAEAHKFFTEILRMDPTNAVANNNAAVCLLYLGKLKDSLRQLEAMVQQDPRHYLHESVLFNLTTMYELESSRSMQKKQSLLEAVASKEGDSFNTQCLKLA
As to B1, the binding result in assay [1] and in assay [2] was “binds” in each case.
